Experimental data from US9404916B2, “Use of a protein kinase inhibitor to detect immune cells, such as T cells” (University College Cardiff Consultants Limited, priority 2008, dated 2016).
Some entries share one result that the patent states for a list of compounds.

System: ILA1 CTL
Assay: pMHCI tetramer staining of ILA1 CTL clone after PKI pre-treatment (flow cytometry)
Assay type: cell-based, human

Cc1nc(Nc2ncc(C(=O)Nc3c(C)cccc3Cl)s2)cc(N2CCN(CCO)CC2)n1 [dasatinib, N-(2-chloro-6-methyl-phenyl)-2-(6-(4-(2-hydroxyethyl)-piperazin-1-yl)-2-methylpyrimidin-4-ylamino)thiazole-5-carboxamide]
increase in pMHCI tetramer staining intensity (median fluorescence intensity, MFI): > 10 fold
